{
  "source": "patent US20250003953A1",
  "about": "“Methods and Model Systems for Assessing Therapeutic Properties of Candidate Agents and Related Computer Readable Media and Systems” (The Regents of the University of California, priority 2021, published 2025)",
  "test_system": "GENEVA cell pool of cell lines",
  "test": "GENEVA cell pool drug sensitivity by relative cell counts from single-cell RNA sequencing",
  "type": "cell-based, human",
  "details": "several doses of ARS1620; KRAS.G12C vs non-KRAS.G12C cell lines",
  "text": "This example is directed at discovery of genetic drivers of sensitivity to a drug compound by way of simultaneous inference of phenotype from a GENEVA cell pool. Long-duration growth balanced cell pools were created and subjected to drug treatment. After assignment to patient of origin and drug treatment condition using genetic demultiplexing using the method as described in Example 5 and sample hashing demultiplexing as described in Example 6, datasets were obtained with discrete numbers of cells in each drug treatment condition as evidenced in FIG. 2A,B,C,D,E,F. The relative number of viable cells remaining in each drug treatment condition for each cell type was counted and this drug sensitivity information was used as the response variable for a linear model. […]\nThe number of cells in each drug condition were counted according to the origin cell type. […]\nfitness for cell type Ci against Drug Dx based on proportional representation was calculated as: […]\nFor each drug or vehicle Dx, the total number of cells was counted in each condition, the geometric mean of the total cell counts was calculated, and the total number of cells in each condition was divided by the geometric mean of the cell counts to obtain a normalization ratio. […]\nFor each of these fitness calculations, the relative fitness was calculated as: […]",
  "note": "The name of at least one read-out is uncertain.",
  "data": [
    {"smiles": "C=CC(=O)N1CCN(c2ncnc3c(F)c(-c4c(O)cccc4F)c(Cl)cc23)CC1", "note": "[ARS1620]", "values": [
      {"measurement": "relative percent survival from reconstructed IC50 curves", "result": "non-KRAS.G12C cell lines show significantly greater survival to ARS1620 than KRAS.G12C cell lines"}
    ]}
  ]
}
